{"source": "PubChem BioAssay AID743121 – NCATS, 2013", "screen": "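Partners whose loss is lethal together with topoisomerase I blockade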 (primary screen)", "cell system": "MDA-MB-231 cells, a human breast cancer line", "knock-down reagent": "single siRNA against human genes, 20 nM siRNA (0.8 pmol per well)", "timing": "120 h (drug added 48 h after transfection, read 72 h later)", "treatment": "camptothecin 20 nM (about EC30) for 72 h; vehicle 0.1% DMSO in parallel plates", "measured": "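Cell viability by ATP luminescence (CellTiter-Glo) as % of non-targeting siRNA wells, and the log2 ratio of viability without drug over viability with camptothecin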", "scale": "log2 vehicle/camptothecin viability: higher = stronger sensitisation to camptothecin; viability with camptothecin: higher = more viable cells", "call rule": "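Active genes have an RSA gene-level p-value below 0.001, computed from the ratios of their separate siRNAs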", "note": "The whole screen tested about 26,000 reagents; shown is a random part of them. 167 of them (0.63%) were called active. 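Calls are per gene from RSA p-values that are not deposited; an individual active-marked siRNA can sensitise only weakly.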 Reagents against one gene are numbered here. Further read-outs or replicates are left out here."}
{"gene knocked down": "CAV1 (caveolin 1)", "reagent no.": 1, "log2 vehicle/camptothecin viability": -0.118, "viability with camptothecin (% of control)": 107, "Call": "inactive"}
{"gene knocked down": "CAV1 (caveolin 1)", "reagent no.": 2, "log2 vehicle/camptothecin viability": -0.367, "viability with camptothecin (% of control)": 79.9, "Call": "inactive"}
{"gene knocked down": "CAV1 (caveolin 1)", "reagent no.": 3, "log2 vehicle/camptothecin viability": 0.484, "viability with camptothecin (% of control)": 61.4, "Call": "inactive"}
{"gene knocked down": "P2RY11 (purinergic receptor P2Y11)", "reagent no.": 1, "log2 vehicle/camptothecin viability": -0.816, "viability with camptothecin (% of control)": 16.4, "Call": "inactive"}
{"gene knocked down": "P2RY11 (purinergic receptor P2Y11)", "reagent no.": 2, "log2 vehicle/camptothecin viability": -0.379, "viability with camptothecin (% of control)": 89.2, "Call": "inactive"}
{"gene knocked down": "P2RY11 (purinergic receptor P2Y11)", "reagent no.": 3, "log2 vehicle/camptothecin viability": 0.589, "viability with camptothecin (% of control)": 11.3, "Call": "inactive"}
{"gene knocked down": "P2RY11 (purinergic receptor P2Y11)", "reagent no.": 4, "log2 vehicle/camptothecin viability": -0.474, "viability with camptothecin (% of control)": 53.3, "Call": "inactive"}
{"gene knocked down": "RDH11 (retinol dehydrogenase 11)", "reagent no.": 1, "log2 vehicle/camptothecin viability": 0.0395, "viability with camptothecin (% of control)": 52.9, "Call": "inactive"}
{"gene knocked down": "RDH11 (retinol dehydrogenase 11)", "reagent no.": 2, "log2 vehicle/camptothecin viability": -0.0998, "viability with camptothecin (% of control)": 85.9, "Call": "inactive"}
{"gene knocked down": "RDH11 (retinol dehydrogenase 11)", "reagent no.": 3, "log2 vehicle/camptothecin viability": -0.0283, "viability with camptothecin (% of control)": 105, "Call": "inactive"}
{"gene knocked down": "RDH11 (retinol dehydrogenase 11)", "reagent no.": 4, "log2 vehicle/camptothecin viability": -0.372, "viability with camptothecin (% of control)": 72.8, "Call": "inactive"}
{"gene knocked down": "SLC25A45", "reagent no.": 1, "log2 vehicle/camptothecin viability": 0.769, "viability with camptothecin (% of control)": 38.8, "Call": "inactive"}
{"gene knocked down": "SLC25A45", "reagent no.": 2, "log2 vehicle/camptothecin viability": 0.176, "viability with camptothecin (% of control)": 61.2, "Call": "inactive"}
{"gene knocked down": "SLC25A45", "reagent no.": 3, "log2 vehicle/camptothecin viability": -0.605, "viability with camptothecin (% of control)": 89.6, "Call": "inactive"}
{"gene knocked down": "BRPF1 (bromodomain and PHD finger containing 1)", "reagent no.": 1, "log2 vehicle/camptothecin viability": 0.109, "viability with camptothecin (% of control)": 94.9, "Call": "inactive"}
{"gene knocked down": "BRPF1 (bromodomain and PHD finger containing 1)", "reagent no.": 2, "log2 vehicle/camptothecin viability": -0.0104, "viability with camptothecin (% of control)": 92.7, "Call": "inactive"}
{"gene knocked down": "BRPF1 (bromodomain and PHD finger containing 1)", "reagent no.": 3, "log2 vehicle/camptothecin viability": 0.0565, "viability with camptothecin (% of control)": 87.4, "Call": "inactive"}
{"gene knocked down": "BRPF1 (bromodomain and PHD finger containing 1)", "reagent no.": 4, "log2 vehicle/camptothecin viability": -0.103, "viability with camptothecin (% of control)": 45.4, "Call": "inactive"}
{"gene knocked down": "TCP11L2 (t-complex 11 like 2)", "reagent no.": 1, "log2 vehicle/camptothecin viability": -0.104, "viability with camptothecin (% of control)": 95.1, "Call": "inactive"}
{"gene knocked down": "TCP11L2 (t-complex 11 like 2)", "reagent no.": 2, "log2 vehicle/camptothecin viability": -0.453, "viability with camptothecin (% of control)": 89.8, "Call": "inactive"}
{"gene knocked down": "TCP11L2 (t-complex 11 like 2)", "reagent no.": 3, "log2 vehicle/camptothecin viability": -0.236, "viability with camptothecin (% of control)": 93.4, "Call": "inactive"}
{"gene knocked down": "TCP11L2 (t-complex 11 like 2)", "reagent no.": 4, "log2 vehicle/camptothecin viability": -0.309, "viability with camptothecin (% of control)": 58.9, "Call": "inactive"}
{"gene knocked down": "PDGFB (platelet derived growth factor subunit B)", "reagent no.": 1, "log2 vehicle/camptothecin viability": 0.416, "viability with camptothecin (% of control)": 2.73, "Call": "inactive"}
{"gene knocked down": "PDGFB (platelet derived growth factor subunit B)", "reagent no.": 2, "log2 vehicle/camptothecin viability": 0.0573, "viability with camptothecin (% of control)": 74.2, "Call": "inactive"}
{"gene knocked down": "PDGFB (platelet derived growth factor subunit B)", "reagent no.": 3, "log2 vehicle/camptothecin viability": 0.221, "viability with camptothecin (% of control)": 62.9, "Call": "inactive"}
{"gene knocked down": "PDGFB (platelet derived growth factor subunit B)", "reagent no.": 4, "log2 vehicle/camptothecin viability": -0.376, "viability with camptothecin (% of control)": 96.7, "Call": "inactive"}
{"gene knocked down": "PLCG2 (phospholipase C gamma 2)", "reagent no.": 1, "log2 vehicle/camptothecin viability": 0.147, "viability with camptothecin (% of control)": 96.8, "Call": "inactive"}
{"gene knocked down": "PLCG2 (phospholipase C gamma 2)", "reagent no.": 2, "log2 vehicle/camptothecin viability": -0.338, "viability with camptothecin (% of control)": 110, "Call": "inactive"}
{"gene knocked down": "PLCG2 (phospholipase C gamma 2)", "reagent no.": 3, "log2 vehicle/camptothecin viability": -0.0932, "viability with camptothecin (% of control)": 89.5, "Call": "inactive"}
{"gene knocked down": "PLCG2 (phospholipase C gamma 2)", "reagent no.": 4, "log2 vehicle/camptothecin viability": -0.44, "viability with camptothecin (% of control)": 95.9, "Call": "inactive"}
{"gene knocked down": "HLTF (helicase like transcription factor)", "reagent no.": 1, "log2 vehicle/camptothecin viability": -0.155, "viability with camptothecin (% of control)": 108, "Call": "inactive"}
{"gene knocked down": "HLTF (helicase like transcription factor)", "reagent no.": 2, "log2 vehicle/camptothecin viability": -0.259, "viability with camptothecin (% of control)": 113, "Call": "inactive"}
{"gene knocked down": "HLTF (helicase like transcription factor)", "reagent no.": 3, "log2 vehicle/camptothecin viability": -0.153, "viability with camptothecin (% of control)": 111, "Call": "inactive"}
{"gene knocked down": "HLTF (helicase like transcription factor)", "reagent no.": 4, "log2 vehicle/camptothecin viability": -0.229, "viability with camptothecin (% of control)": 109, "Call": "inactive"}
{"gene knocked down": "XRCC6 (X-ray repair cross complementing 6)", "reagent no.": 1, "log2 vehicle/camptothecin viability": 0.934, "viability with camptothecin (% of control)": 14.7, "Call": "inactive"}
{"gene knocked down": "XRCC6 (X-ray repair cross complementing 6)", "reagent no.": 2, "log2 vehicle/camptothecin viability": -0.0916, "viability with camptothecin (% of control)": 72, "Call": "inactive"}
{"gene knocked down": "XRCC6 (X-ray repair cross complementing 6)", "reagent no.": 3, "log2 vehicle/camptothecin viability": -0.211, "viability with camptothecin (% of control)": 46.4, "Call": "inactive"}
{"gene knocked down": "XRCC6 (X-ray repair cross complementing 6)", "reagent no.": 4, "log2 vehicle/camptothecin viability": 0.0743, "viability with camptothecin (% of control)": 90.3, "Call": "inactive"}

Records above whose target name begins with X or x:
{"gene knocked down": "XRCC6 (X-ray repair cross complementing 6)", "reagent no.": 1, "log2 vehicle/camptothecin viability": 0.934, "viability with camptothecin (% of control)": 14.7, "Call": "inactive"}
{"gene knocked down": "XRCC6 (X-ray repair cross complementing 6)", "reagent no.": 2, "log2 vehicle/camptothecin viability": -0.0916, "viability with camptothecin (% of control)": 72, "Call": "inactive"}
{"gene knocked down": "XRCC6 (X-ray repair cross complementing 6)", "reagent no.": 3, "log2 vehicle/camptothecin viability": -0.211, "viability with camptothecin (% of control)": 46.4, "Call": "inactive"}
{"gene knocked down": "XRCC6 (X-ray repair cross complementing 6)", "reagent no.": 4, "log2 vehicle/camptothecin viability": 0.0743, "viability with camptothecin (% of control)": 90.3, "Call": "inactive"}
